# Microarray screen: hit calls

Data from the ROBIN nucleic acid binder screens, doi:10.1002/anie.202211358.

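Each compound is printed as two spots on a slide made to bind it covalently, so it has no test concentration; the read-out is fluorescence of the bound, labelled oligonucleotide. The data file lists only calls. An earlier report of the laboratory on the PreQ1, TPP and SAM-II riboswitches (doi:10.1038/s41467-019-09493-3) used 1 µM RNA for 2 h and required a mean Z-score above 3 (spot signal-to-noise against the whole library), a score well above that on a control array, and duplicate spots agreeing (coefficient of variation under 100); it then also set aside compounds that hit other targets, which this list keeps. The cut-offs behind this list may differ. The calls come from the array alone, and fixing a compound to the slide can hide its binding.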
Key: hit = hit, no hit = tested without a hit.
This is an unselected part of the compounds tested.
A target missing from an entry has no call listed here.
A dash means that no call is listed here.

Oligonucleotides screened, 5′ to 3′:
T1: TPP riboswitch RNA three-way junction, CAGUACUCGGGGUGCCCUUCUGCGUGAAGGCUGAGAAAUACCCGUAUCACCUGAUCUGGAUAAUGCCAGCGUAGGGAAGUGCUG. Hit rate about 0.7% of about 24,000 compounds.
T2: SAM-II riboswitch RNA pseudoknot, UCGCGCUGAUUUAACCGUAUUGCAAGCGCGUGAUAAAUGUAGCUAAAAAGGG. Hit rate about 1% of about 21,000 compounds.

For Cc1cc2c3ccccc3ncn2n1 the calls were T1: no hit; T2: no hit. With CCc1nc(NCCCO)c(C#N)c2c1CCCC2 the screen gave T1: no hit; T2: no hit. Calls for CSc1cccc(NC(=O)N2CCN(C)CC2)c1 are T1: no hit; T2: no hit. For CCOc1ccccc1C1C(C#N)=C(N)OC2=C1S(=O)(=O)N(Cc1ccccc1)c1ccccc12 (centres unmarked) the calls were T1: no hit. NC(=O)c1ccccc1NC(=O)COc1ccc(Cl)cc1 was scored T1: no hit; T2: no hit. For COc1cc2ncnc(Nc3ccc(O)c(Br)c3)c2cc1OC the calls were T1: no hit; T2: no hit.

Cn1cnc2c1c(=O)n(Cc1ccc(-c3nnc(N)s3)cc1)c(=O)n2C was scored T1: no hit; T2: no hit. Calls for Cc1cc2c(c(=O)o1)C1(C(=O)Nc3ccc(Br)cc31)C(C#N)=C(N)O2 (centres unmarked) are T1: no hit; T2: no hit. Calls for Cc1ccc(S(=O)(=O)c2nc(-c3ccc(Cl)cc3Cl)oc2NCc2ccccc2)cc1 are T1: no hit; T2: no hit. With CN(C)CCCNCc1cccn1C the screen gave T1: no hit; T2: no hit. C=CCn1cc(CNCc2nncn2CCc2ccccc2)c(C)n1 was scored T1: no hit; T2: no hit. With COCCn1c2nc(=O)n(-c3ccccc3)c(=O)c-2nc2ccccc21 the screen gave T1: no hit; T2: no hit.

Calls for Cc1cc(NCC(O)CN2CCCC2)nc(-c2ccccc2O)n1 (centres unmarked) are T1: no hit; T2: no hit. For CCN(CC)C(=O)[C@@H]1C[C@@H](N)CN1S(=O)(=O)c1cnn(CC)c1 the calls were T1: no hit; T2: no hit. Calls for CCN(CC)CCCNCc1ccc2c(c1)n(C)c(=O)n2C are T1: no hit. Cc1ccc(CCC(=O)N2C[C@@H](CN3CCCN(C)CC3)C[C@H](CO)C2)cc1 was scored T1: no hit; T2: no hit. Calls for O=C(NC(Cc1cc(=O)[nH]c2ccccc12)C(=O)O)c1ccc(Cl)cc1 (centres unmarked) are T1: no hit; T2: no hit. With COC(=O)c1cccc(Nc2cc(C)nc3nc(-c4cccnc4)nn23)c1 the screen gave T1: no hit.

Calls for OC(COc1c(F)cc(Br)cc1F)CN1CCOCC1 (centres unmarked) are T1: no hit; T2: no hit. Calls for O=C(C1CC1)N1CCCC(n2ccnc2-c2cc3n(n2)CCNC3)C1 (centres unmarked) are T1: no hit; T2: no hit. Calls for Cc1cc(N2CCN(S(=O)(=O)c3cccc(C(F)(F)F)c3)CC2)nc(NC2CCCCC2)n1 are T1: no hit. CS(=O)(=O)N1CCN([C@H]2CN(C(=O)CCn3ccccc3=O)C[C@@H]2O)CC1 was scored T1: no hit; T2: no hit. Calls for Cn1cc(CN)cn1 are T1: no hit; T2: no hit. With Cc1ccc(CCNC2CCN(c3ncnc4[nH]cnc34)CC2)s1 the screen gave T1: no hit; T2: no hit.

With O=C(C1CNCCN1C(=O)c1ccc(Cn2ccnc2)o1)N1CCCC1 (centres unmarked) the screen gave T1: no hit; T2: no hit. With Cn1c(=O)n(C)c2cc(CNC(C)(C)CC(C)(C)C)ccc21 the screen gave T1: no hit. With CCOc1ccc(C(O)Cc2nc3ccccc3n2C)cc1 (centres unmarked) the screen gave T1: no hit; T2: no hit. For CCc1nnsc1C(=O)N1CCC2(CC1)[C@H](O)C[C@@H]2OCCN the calls were T1: no hit; T2: no hit. With Cc1ccccc1CSc1nnc(CCN)o1 the screen gave T1: no hit; T2: no hit. With CC(=O)O.N=c1ccn2c(n1)OC1C(O)C(CO)OC12 (centres unmarked) the screen gave T1: no hit; T2: no hit.

Cc1c(Cl)cccc1NCC(=O)NN=Cc1ccc(C#N)cc1 was scored T1: no hit; T2: no hit. Cc1nn(C)c(C)c1CN(CCO)C(=O)c1cnc(-c2ccncc2)nc1 was scored T1: no hit; T2: no hit. Calls for COC(=O)CCCNc1cc(C)nc2nc(Cc3ccc(Cl)cc3)nn12 are T1: no hit. With CCOc1ccc(Cl)cc1CNCCNC(=O)c1nonc1N the screen gave T1: no hit; T2: no hit. Nc1ccc2oc(-c3cccc4c(Br)cccc34)nc2c1 was scored T1: hit; T2: hit.

For reference, 4 entries once more:

Compound,T1,T2
NC(=O)c1ccccc1NC(=O)COc1ccc(Cl)cc1,no hit,no hit
CCc1nnsc1C(=O)N1CCC2(CC1)[C@H](O)C[C@@H]2OCCN,no hit,no hit
CSc1cccc(NC(=O)N2CCN(C)CC2)c1,no hit,no hit
COC(=O)CCCNc1cc(C)nc2nc(Cc3ccc(Cl)cc3)nn12,no hit,-